# No constants are given. Whether binding was seen depends on the method and setting. Some binding calls cover weakened binding; strength is not graded here.
# Sequences of proteins named here, by UniProt entry; tags and fusion partners are left off. Residues count along the entry.
# UniProt P22290, residues 211-525: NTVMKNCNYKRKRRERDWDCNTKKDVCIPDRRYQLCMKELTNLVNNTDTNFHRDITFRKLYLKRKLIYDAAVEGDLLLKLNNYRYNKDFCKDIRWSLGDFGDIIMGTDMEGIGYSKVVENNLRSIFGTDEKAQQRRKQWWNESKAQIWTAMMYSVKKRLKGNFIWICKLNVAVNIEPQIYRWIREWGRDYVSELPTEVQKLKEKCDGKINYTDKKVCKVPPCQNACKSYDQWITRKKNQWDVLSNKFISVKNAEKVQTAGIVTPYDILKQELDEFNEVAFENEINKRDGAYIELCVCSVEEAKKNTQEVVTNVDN
# B1: human Duffy antigen receptor for chemokines, on erythrocytes (receptor, UniProt Q16570 1-336)
# chain: MGNCLHRAELSPSTENSSQLDFEDVWNSSYGVNDSFPDGDYGANLEAAAPCHSCNLLDDSALPFFILTSVLGILASSTVLFMLFRPLFRWQLCPGWPVLAQLAVGSALFSIVVPVLAPGLGSTRSSALCSLGYCVWYGSAFAQALLLGCHASLGHRLGAGQVPGLTLGLTVGIWGVAALLTLPVTLASGASGGLCTLIYSTELKALQATHTVACLAIFVLLPLGLFGAKGLKKALGMGPGPWMNILWAWFIFWWPHGVVLGLDFLVRSKLLLLSTCLAQQALDLLLNLAEALAILHCVATPLLLALFCHQATRTLLPSLPLPEGWSSHLDTLGSKS
# Key:
# [1] = biological target: Plasmodium vivax Duffy binding protein region II (Sal-1), expressed on the surface of COS-7 cells (Plasmodium vivax (Sal-1)) (UniProt P22290); assay: inhibition of erythrocyte binding (rosetting) to transfected COS-7 cells; monkey sera at 1:30 for 1 h at 37°C, then human O+ DARC-positive erythrocytes (10% suspension, 200 uL/well) for 2 h at room temperature, washed with PBS, rosettes counted
# [2] = biological target: Plasmodium vivax Duffy binding protein region II (Sal-1), expressed on the surface of COS-7 cells (Plasmodium vivax (Sal-1)) (UniProt P22290); assay: erythrocyte-binding (rosetting) assay on transfected COS-7 cells; data not shown; human erythrocytes on COS cells expressing PvDBPII, number of rosettes
binder,measurement,setting,value
B1,binding,[1],binds
same,binding,[2],binds
